Test results: US20190119700A1
These are yes or no findings as the source states them, for the method shown. Some entries that bind do so weakly or less than the wild type. Sequences can lack the tags named with a protein.

Biological target: T1, IRF7-GlucC fusion protein (human), Q92985
T1 chain: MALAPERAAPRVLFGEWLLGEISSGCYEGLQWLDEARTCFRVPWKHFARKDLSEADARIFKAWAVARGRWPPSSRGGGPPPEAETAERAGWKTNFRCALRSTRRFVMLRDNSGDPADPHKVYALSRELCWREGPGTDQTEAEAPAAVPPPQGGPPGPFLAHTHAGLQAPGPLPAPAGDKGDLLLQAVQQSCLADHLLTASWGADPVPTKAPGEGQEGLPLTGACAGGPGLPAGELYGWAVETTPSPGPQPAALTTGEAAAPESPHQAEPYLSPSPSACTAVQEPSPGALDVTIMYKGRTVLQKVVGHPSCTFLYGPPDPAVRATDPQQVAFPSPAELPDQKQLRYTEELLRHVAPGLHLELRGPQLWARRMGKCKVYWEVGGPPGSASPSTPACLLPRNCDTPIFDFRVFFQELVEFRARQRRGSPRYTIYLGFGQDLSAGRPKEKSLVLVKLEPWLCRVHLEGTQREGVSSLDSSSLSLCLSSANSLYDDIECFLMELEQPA
Experiment: split Gaussia luciferase complementation (BiLC) in stably transduced THP-1 cells, luciferase activity of lysates after stimulation
Conditions: remark: other sources report otherwise

B1: IRF7-GlucN fusion protein, Q92985 1-503 (protein, UniProt Q92985 1-503, looked up, not shown: large carriers)
chain: MALAPERAAPRVLFGEWLLGEISSGCYEGLQWLDEARTCFRVPWKHFARKDLSEADARIFKAWAVARGRWPPSSRGGGPPPEAETAERAGWKTNFRCALRSTRRFVMLRDNSGDPADPHKVYALSRELCWREGPGTDQTEAEAPAAVPPPQGGPPGPFLAHTHAGLQAPGPLPAPAGDKGDLLLQAVQQSCLADHLLTASWGADPVPTKAPGEGQEGLPLTGACAGGPGLPAGELYGWAVETTPSPGPQPAALTTGEAAAPESPHQAEPYLSPSPSACTAVQEPSPGALDVTIMYKGRTVLQKVVGHPSCTFLYGPPDPAVRATDPQQVAFPSPAELPDQKQLRYTEELLRHVAPGLHLELRGPQLWARRMGKCKVYWEVGGPPGSASPSTPACLLPRNCDTPIFDFRVFFQELVEFRARQRRGSPRYTIYLGFGQDLSAGRPKEKSLVLVKLEPWLCRVHLEGTQREGVSSLDSSSLSLCLSSANSLYDDIECFLMELEQPA
Question: B1 was tested. Which binding did it give?
Answer: Its binding is “binds”.
